Primary screen of a compound library

Results are given as percent effect.
The controls that fix the scale are not given in the record; negative values are as filed.
This is an unselected part of the compounds tested.

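Whole-cell assay for inhibitors of Mycobacterium tuberculosis growth, labelled Cornell in the record; the read-out is not stated. The concentration is filed as 10 mM, unlikely as a test dose, so the dose is not known. The record gives no direction; compounds strong in two other growth screens of this library score well above the rest, so higher reads as stronger inhibition. Of about 53,000 compounds tested this way, about 900 (1.7%) reached 50% or more in at least one test.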

compound	effect
COCCCOc1ccc(C(=O)N(C)CCC(C)C)cn1	-28.57%
Cc1cc(C(=O)N2CCC(c3nccn3Cc3ccccn3)CC2)no1	22.28%
CC(C)N1CC(C(=O)N2CCc3c(nc(CC4CC4)[nH]c3=O)C2)CC1=O (configuration not stated)	5.312%
O=C(O)c1ccnc(SCc2ccccc2)c1	-23.6%
CCN1C(=O)CC(c2cnn(C)c2)C12CCN(C(=O)c1ccc[nH]1)CC2 (configuration not stated)	-30.12%
Cc1cccc(CN2CCC3(CCC(CC(=O)N(C)C)CC3)CC2)n1.O=C(O)C(F)(F)F	-1.538%
Br.Cc1ncc(C(=O)N2CCOC(C(=O)N3CCCCCC3)C2)c(C)n1 (configuration not stated)	25.5%
CC(NC(=O)N1CCSC(C)(C)C1)c1noc(-c2ccccc2)n1 (configuration not stated)	30.1%
O=C(O)C(F)(F)F.O=C(O)C(F)(F)F.O=C(O)C(F)(F)F.[H][C@@]12C[C@@H](OCc3cccc(C)n3)CN1CCN(c1ncc(C)cn1)C2	35.34%
CC(C)NC(=O)C1CN(Cc2cccs2)Cc2ccnn2C1 (configuration not stated)	14.88%
NC(=O)CN1CCC(NC(=O)N2CCCC2c2ccsc2)CC1 (configuration not stated)	-3.189%
c1nnc(Nc2cncc(C3CCCN3CC3CC3)n2)s1 (configuration not stated)	9.012%
CCCN1CCC2(C1)c1ccccc1S(=O)(=O)N2Cc1ccccc1.O=C(O)C(F)(F)F (configuration not stated)	8.854%
O=C(O)C(F)(F)F.[H][C@@]12CN(C(=O)C3CCOC3)C[C@]1([H])C(=O)N(Cc1cccnc1)C2 (some centres not stated)	-20.91%
N#Cc1nccnc1N1CCC(c2nc(C(F)(F)F)c[nH]2)CC1	7.02%
CC(C)[C@H](NC(=O)NC1CCS(=O)(=O)C1)C(=O)NCc1ccc(Cl)cc1 (some centres not stated)	20.45%
CN(C)S(=O)(=O)N1CC[C@]2(C[C@H](OCc3ccncc3)CO2)C1.O=C(O)C(F)(F)F	6.743%
Cc1ccccc1CN1CCCN(S(=O)(=O)N(C)C2CCCCC2)CC1	58.2%
CCC(=O)N1CCC(Cc2cnc(Nc3cnccn3)cn2)CC1	10.97%
N#Cc1cnc(NCc2cccc(C(=O)N3CCCC3)c2)c(Cl)c1	46.06%
CCn1c(CN2CCCC2)nnc1C1CCN(Cc2ccncc2)CC1	32.27%
O=C(c1ccccc1C(F)(F)F)N1CC[C@@H](N2CCC(O)CC2)[C@H](O)C1	7.887%
CNc1ccc(C(=O)N(C)Cc2ccc3ccccc3n2)cn1	19.9%
Cn1nccc1-c1nnn2c1COCC(CNC1CCOCC1)C2.O=C(O)C(F)(F)F.O=C(O)C(F)(F)F (configuration not stated)	1.052%
CCC(CC)C(=O)N1CCOC2(COCCN(CC(=O)NC)C2)C1.O=C(O)C(F)(F)F (configuration not stated)	-8.027%
CCCc1nc(CN2CCCCC2Cn2cncn2)cs1 (configuration not stated)	1.459%
COc1cn(CC(=O)N2CCN(c3ccc(Cl)cc3)CC2)c(C)cc1=O	0.3605%
[H][C@]12CN(Cc3cccnc3)C(=O)[C@@]1([H])CN(C1CCOCC1)C2	-5.624%
CC(C)(C)CN[C@@H]1CO[C@H](CNC(=O)Nc2ccccc2)[C@H]1O	1.561%
c1ccc(-c2nc(CN3CCOC(Cn4cncn4)C3)cs2)cc1 (configuration not stated)	4.57%
CC(C)Cc1cc(CC2(NCc3ccccc3Cl)COC2)no1	8.95%
Cc1cnc(C)c(N2CCC(C(=O)O)(n3ccc(C(C)(C)C)n3)CC2)n1	5.905%
COCC1CCN(C(=O)c2cn(Cc3ccccc3F)nn2)CC1	25.9%
COc1ccc(-c2n[nH]cc2CN2CCSCC2)c(OC)c1	4.259%
Cc1ccsc1C(=O)N1CCc2ncc(Cn3cccn3)n2CC1	-4.84%
CC(C)N1CCN(C)C2(CCN(C(=O)c3ccnnc3)CC2)C1=O	12.75%
[H][C@@]12C[C@H](C(=O)N3CCCC3)[C@@]([H])(CN(C(=O)NCc3ccccc3C)C1)O2	-54.24%
OCCCNc1nc(O)c2c(n1)-c1ccccc1CC21CCCCC1	11.88%
Cc1nc(C#N)c(N2CCC(c3nc(-c4ccccc4)no3)CC2)o1	7.661%
[H][C@@]12CC(=O)N(C)[C@@]1([H])CCN2C(=O)c1ccc[nH]1	17.69%
CCC(C(=O)NCc1csc(-c2ncccn2)n1)n1cccn1 (configuration not stated)	-40.25%
O=C(c1cn2cc(Cl)ccc2n1)N1CCC(CCn2cccn2)CC1	3.297%
O=C(NCCOc1ncc(Cl)cc1Cl)c1ccoc1	4.117%
CN1CCN(C2CCN(CC(O)c3ccccc3)CC2)C1=O (configuration not stated)	32.87%
Cc1ccc(Cl)c(NC(=O)c2cccc(CN3CC[C@H](O)C3)c2)c1	24.15%
Cc1nccn1C1CCCN(C(=O)c2cc(O)nc3ccccc23)C1 (configuration not stated)	1.027%
[H][C@@]12CS(=O)(=O)C[C@]1([H])N(C(=O)Cc1ccc(CO)cc1)CCN2CC1CC1	7.706%
O=C(O)C(F)(F)F.[H][C@@]12CCCO[C@]1([H])[C@H](NC(=O)c1cscn1)CN2	-7.782%
Cc1cc(NC(=O)CN2CCCC2c2noc(C)n2)n(C(C)(C)C)n1 (configuration not stated)	-13.91%
Cc1cscc1C(=O)Nc1cncnc1N(C)C	-18.17%
Cc1noc(C)c1CN1Cc2cn(C)nc2C(COCC2CC2)C1.O=C(O)C(F)(F)F.O=C(O)C(F)(F)F (configuration not stated)	-55.21%
O=C(NCCCc1ccc(F)cc1)c1ccc(N2CCOCC2)cc1	15.95%
Cc1ccccc1CC(=O)N1CCCn2cncc2C1	-17.85%
COCCc1nnc(NC(=O)Cc2ccccc2Cl)o1	1.42%
COC(=O)c1cccc(S(=O)(=O)Nc2ccc(F)c(C(N)=O)c2)c1	5.015%
NC(=O)c1c(-c2ccc(Cl)cc2)csc1NC(=O)CCC(=O)O	-1.119%
O=C(NCC1(c2ccc(F)cc2)CCCC1)N1CCOC(CO)C1 (configuration not stated)	-28.19%
c1csc(-c2nc(CN3CCCCC3Cn3cccn3)co2)c1 (configuration not stated)	5.917%
Cc1ccc2cc(C(=O)N3CCC(O)(C(F)(F)F)CC3)ccc2n1	-10.62%
O=C(CC1CC2(CCN(CC3CC3)CC2)Oc2ccccc21)NC1CC1.O=C(O)C(F)(F)F (configuration not stated)	32.69%
Cc1cnc(N2CCC3(C2)C(=O)N(C)CCN3Cc2cccnc2)nc1.O=C(O)C(F)(F)F.O=C(O)C(F)(F)F (configuration not stated)	40.9%
CC(C)c1noc(CN(Cc2cccnc2)C2CN3CCC2CC3)n1 (configuration not stated)	-72.95%
Fc1cccc2c1CCC2NCc1cnc(N2CCOCC2)nc1 (configuration not stated)	-0.2704%
CNC(=O)CS(=O)(=O)Cc1cc(Cl)c2c(c1)OCCCO2	16.88%
Cc1cc(-c2cc(N)c(=O)n(CC(=O)N3CCCC(C)C3)n2)c(C)o1 (configuration not stated)	-44.98%
CC(C)N1CCC(C(=O)N(C)CC(=O)c2ccc(O)cc2)CC1	14.5%
CCc1nc(C)c(CN2CCOC(Cc3cccc4ccccc34)C2)[nH]1 (configuration not stated)	25.46%
COCCN(Cc1sccc1C)Cc1nccn1CCOC	8.846%
CCN1C(=O)C2(CCOCC2)c2cc(NC(=O)c3csnn3)ccc21	-10.87%
O=C(O)C(F)(F)F.[H][C@]12CC(=O)N(CC3CC3)[C@@]1([H])CCN2Cc1ccccn1	13.97%

The values are deposited in ChEMBL (CHEMBL3988442, “University of Dundee, Small-Polar-MMV Screening Library” (2021)).